# Measurements reported in PubChem BioAssay AID1508597 (Cure First, 2020)
# Test: 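Knock-downs altering ovarian cancer cell survival with or without PARP inhibitor rucaparib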 (primary screen)
# Cell system: human ovarian carcinoma lines grown from tumours: OCI-P5x (papillary serous) and OCI-C5x (clear cell)
# Reagents: siRNA pool against human genes, 1.25 pmol siRNA per well
# Timing: 72 h or 96 h, depending on the cell culture
# Challenge: rucaparib 20 µM (about IC30) or vehicle, present until read-out
# Rucaparib or vehicle: Rucaparib
# Cell line: OCI-P5x (serous)
# Read-out: 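ATP luminescence measured at 72 or 96 h according to the culture, then normalised and expressed as percent viability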
# Scale: viability, normalised: higher = more viable cells remaining
# Active means: 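a well counts as a hit if its normalised viability is under 80 percent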
# Calls: active = viability under 80%; inactive = viability 80% or more
# Shown is an unselected part of the about 2,100 reagents, under one of the conditions tested. 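Calls flag viability under 80% in either arm, not effects specific to rucaparib; the reference for percent is not stated.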 The record does not give: the 100% reference.
Gene,technical replicate,"viability, normalised (%)",call
PRKD2,1,71.4,active
PRKD2,2,76.1,active
PRKD2,3,95.9,inactive
CDC14B,1,95.7,inactive
CDC14B,2,94.8,inactive
CDC14B,3,51.1,active
CHD4,1,71,active
CHD4,2,57.6,active
CHD4,3,46.6,active
TPP1,1,73,active
TPP1,2,70.7,active
TPP1,3,62.2,active
MKNK1,1,111,inactive
MKNK1,2,95.4,inactive
MKNK1,3,93.3,inactive
RPS19BP1,1,87.2,inactive
RPS19BP1,2,116,inactive
RPS19BP1,3,68.4,active
RALY,1,72.3,active
RALY,2,77.8,active
RALY,3,68.9,active
ACE,1,41.2,active
ACE,2,59.3,active
ACE,3,29.8,active

A stretch of the results above, as a working copy:
Gene,technical replicate,"viability, normalised (%)",call
RALY,1,72.3,active
RALY,2,77.8,active
RALY,3,68.9,active
ACE,1,41.2,active
